Data source: PubChem BioAssay AID652272 (Drosophila RNAi Screening Center, 2013)
In all, the deposit lists about 21,000 reagents; below is a random part of those that have a named target and a result. In the full data, 503 (2.4%) are marked active. 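Raw plate light values, not normalised; calls rest on replicate z-scores that were not deposited; hits include reporter decreases as well as increases.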 The numbers tell different reagents against one gene apart. A plus sign joins genes that one reagent is predicted to hit. No sequences are given here. Not given: the amount of reagent, the time to read-out.

- Aim: 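Genome-wide knock-down search for components of Hedgehog signalling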 (primary screen)
- System: Drosophila clone 8 (Cl8) cells
- Knock-down reagent: long dsRNA against Drosophila genes
- Detection: 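Firefly light from a Hedgehog-responsive ptc promoter reporter and Renilla reference light, both read on a plate reader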
- Scale: firefly Hh reporter signal: higher = more ptc reporter light; Renilla reference signal: higher = more Renilla control light
- Active means: 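Hit when the z-score averaged over two replicates is under -2 or over +3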
- Meaning of the calls: active = hit: reporter lowered or raised; inactive = not a hit

| target gene | reagent no. | firefly Hh reporter signal, replicate 1 | firefly Hh reporter signal, replicate 2 | Renilla reference signal, replicate 1 | Renilla reference signal, replicate 2 | activity call |
| --- | --- | --- | --- | --- | --- | --- |
| CG12446 | 1 | 78604 | 1.76e5 | 2338 | 7979 | inactive |
| CG34040 | 1 | 1.52e5 | 1.85e5 | 3930 | 8699 | inactive |
| CG14443 | 1 | 72107 | 1.45e5 | 2726 | 5850 | inactive |
| Nrk | 1 | 68881 | 60118 | 1832 | 4877 | inactive |
| mRpS18A | 1 | 44554 | 77300 | 1492 | 1830 | inactive |
| Mms19 | 1 | 1.32e5 | 1.02e5 | 4504 | 3944 | inactive |
| CG43288 | 1 | 5.29e5 | 2.30e5 | 23338 | 5045 | inactive |
| LManIV | 1 | 1.14e5 | 44256 | 2679 | 4802 | inactive |
| Smn | 1 | 86267 | 39024 | 3173 | 1328 | inactive |
| CG33964 + CG13175 | 1 | 85052 | 62049 | 2320 | 4736 | inactive |
| CG33964 + CG13175 | 2 | 62957 | 52746 | 1702 | 4113 | inactive |
| CG33964 + CG13175 | 3 | 1.03e5 | 44704 | 2771 | 3696 | inactive |
| CG10341 | 1 | 42005 | 33044 | 2170 | 1698 | inactive |
| CG30431 | 1 | 1.75e5 | 94764 | 6336 | 3249 | inactive |
| CG30431 | 2 | 1.13e5 | 88759 | 2813 | 7162 | inactive |
| CG34057 | 1 | 50864 | 49269 | 1780 | 3124 | inactive |
| CG6277 | 1 | 1.12e5 | 1.27e5 | 4032 | 3844 | inactive |
| CG3515 | 1 | 89096 | 66145 | 2608 | 1888 | inactive |
| Letm1 | 1 | 65693 | 45367 | 2273 | 1529 | inactive |
| CSN7 | 1 | 85893 | 61879 | 3170 | 2256 | inactive |
| CSN7 | 2 | 68475 | 59761 | 1677 | 4492 | inactive |
| HisT | 1 | 93527 | 2.50e5 | 2448 | 10102 | inactive |
| HisT | 2 | 92184 | 2.61e5 | 2509 | 9933 | inactive |
| HisT | 3 | 87024 | 63270 | 2693 | 1645 | inactive |
| CG34286 | 1 | 53331 | 3.31e5 | 11492 | 5257 | inactive |
| Or19a | 1 | 1.35e5 | 3.86e5 | 4837 | 13629 | inactive |
| eIF4A | 1 | 68052 | 25347 | 1565 | 2051 | inactive |
| Fbl6 | 1 | 81654 | 59372 | 3043 | 1964 | inactive |
| CG31638 | 1 | 68931 | 42837 | 1621 | 4672 | inactive |
| CG31638 | 2 | 59921 | 45464 | 1248 | 4439 | inactive |
| RpL13A | 1 | 32400 | 44082 | 3467 | 3648 | active |
| p53 | 1 | 1.03e5 | 82180 | 4823 | 3643 | inactive |
| Prosbeta2R1 | 1 | 1.25e5 | 2.75e5 | 4387 | 10368 | inactive |
| CG5556 | 1 | 1.84e5 | 1.17e5 | 4141 | 2962 | inactive |
| Vm34Ca | 1 | 60537 | 50740 | 2284 | 4877 | inactive |
| Chsy | 1 | 44183 | 1.60e5 | 1349 | 6886 | inactive |
| Chsy | 2 | 93493 | 2.60e5 | 2963 | 11441 | inactive |
| CG13506 | 1 | 1.05e5 | 80992 | 2211 | 6480 | inactive |
| CG2120 | 1 | 69184 | 2.60e5 | 2163 | 8867 | inactive |
